PubChem BioAssay AID1159579 – Peter MacCallum Cancer Centre | 2015
The whole screen tested about 2,000 reagents; this is an unselected part. 549 of them (27%) were called active. 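Some migration ratios are negative; siRNAs with too few cells are inactive whatever their migration ratio.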 A number with no mark means an inactive call. Reagents against one gene are numbered here. No sequences are given here. The record does not give: the time to read-out.

Aim: 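Find genes whose silencing alters migration of lymphatic endothelial cells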 (follow-up of hits)
System: human dermal lymphatic endothelial cells
Reagent: single siRNA against human genes, 25 nM
Detection: 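High content images of wound closure area and cell nuclei counts, each the average of two wells, expressed against mock transfection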
Direction: migration relative to mock: higher = more migration into the scratch; mean nuclei count: higher = more cells remaining
Rule for the call: 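Called active when the migration ratio is 0.6 or lower (impaired) or 1.3 or higher (accelerated), but inactive whenever the mean nuclei count falls under 3300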
Meaning of the calls: active = migration changed (impaired or accelerated); inactive = no migration change, or too few cells

What did the screen give for PXYLP1 #1?
migration relative to mock: 0.9; migration and cell number class: no change in migration or cell number; mean nuclei count: 6629

What did the screen give for PXYLP1 #2?
migration relative to mock: 0.74; migration and cell number class: no change in migration or cell number; mean nuclei count: 6155

How did the screen score PXYLP1 #3?
migration relative to mock: 0.32 (active); migration and cell number class: migration reduced; mean nuclei count: 5297

For PXYLP1 #4, how do the results read?
migration relative to mock: 1; migration and cell number class: no change in migration or cell number; mean nuclei count: 6766

How did the screen score CD151 #1?
migration relative to mock: 1.27; migration and cell number class: no change in migration or cell number; mean nuclei count: 5918

What did the screen give for CD151 #2?
migration relative to mock: 0.92; migration and cell number class: no change in migration or cell number; mean nuclei count: 6588

For CD151 #3, what does the deposit list?
migration relative to mock: 0.7; migration and cell number class: no change in migration or cell number; mean nuclei count: 5151

For CD151 #4, what was measured?
migration relative to mock: 0.78; migration and cell number class: no change in migration or cell number; mean nuclei count: 5502

How did the screen score EPHA7 #1?
migration relative to mock: 0.58 (active); migration and cell number class: migration reduced; mean nuclei count: 6944

What is on record for EPHA7 #2?
migration relative to mock: 0.82; migration and cell number class: no change in migration or cell number; mean nuclei count: 6276

With EPHA7 #3, how do the results read?
migration relative to mock: -0.66; migration and cell number class: too few cells; migration not scored; mean nuclei count: 1137

With EPHA7 #4, what does the deposit list?
migration relative to mock: 0.69; migration and cell number class: no change in migration or cell number; mean nuclei count: 5582

What did the screen give for IRF8 #1?
migration relative to mock: 1.02; migration and cell number class: no change in migration or cell number; mean nuclei count: 5696

For IRF8 #2, what was measured?
migration relative to mock: 0.09 (active); migration and cell number class: migration reduced; mean nuclei count: 4692

Which result is listed for IRF8 #3?
migration relative to mock: 0.74; migration and cell number class: no change in migration or cell number; mean nuclei count: 6126

For IRF8 #4, what was measured?
migration relative to mock: 0.72; migration and cell number class: no change in migration or cell number; mean nuclei count: 6444

Records listed so far whose gene name begins with P or p:
PXYLP1 #1 — migration relative to mock: 0.9; migration and cell number class: no change in migration or cell number; mean nuclei count: 6629
PXYLP1 #2 — migration relative to mock: 0.74; migration and cell number class: no change in migration or cell number; mean nuclei count: 6155
PXYLP1 #3 — migration relative to mock: 0.32 (active); migration and cell number class: migration reduced; mean nuclei count: 5297
PXYLP1 #4 — migration relative to mock: 1; migration and cell number class: no change in migration or cell number; mean nuclei count: 6766
